How the values were obtained:
[1] = cited from earlier work
[2] = 68Ga radiolabeling (radio-TLC); details: 2 M NaOAc buffer, RT, n = 1
[3] = 64Cu radiolabeling (radio-TLC); details: 0.5 M NaOAc buffer, RT, n = 1

**Q.** Which “reaction concentration up to which [^68Ga]Ga^3+ is quantitatively incorporated” value [1] does the source give for O=C(O)c1cccc(CNC[C@H](Cc2ccc([N+](=O)[O-])cc2)NCc2cccc(C(=O)O)n2)n1 [H2dp-bb-NO2] here?
**A.** 10^–6 M

**Q.** For “N,N′-Bis(3-aminopropyl)-N,N′-bis(6-carboxypyridin-2-yl)-1,2-diaminoethane [H2L^1]”, which “RCC (%), [68Ga]GaCl3” value ([2]; pH 4, 1 × 10^-4 M ligand) is on record?
**A.** 100%

**Q.** What about the “RCC (%), [68Ga]GaCl3” value ([2]; pH 6, 1 × 10^-4 M ligand) of the same molecule?
**A.** 100%

**Q.** What about the “RCC (%), [68Ga]GaCl3” value ([2]; pH 7.4, 1 × 10^-4 M ligand) of the same molecule?
**A.** 100%

**Q.** What about the “RCC (%), [64Cu]CuCl2” value ([3]; pH 4, 1 × 10^-4 M ligand) of the same molecule?
**A.** 100%

**Q.** What about the “RCC (%), [64Cu]CuCl2” value ([3]; pH 5, 1 × 10^-4 M ligand) of the same molecule?
**A.** 100%

**Q.** What about the “RCC (%), [64Cu]CuCl2” value ([3]; pH 7, 1 × 10^-4 M ligand) of the same molecule?
**A.** 100%

**Q.** With NCCCc1cc(CNCCNCc2cc(CCCN)cc(C(=O)O)n2)nc(C(=O)O)c1 [H2dedpa-propylpyr-NH2] as the molecule, how does the “reaction concentration up to which labeled by [^67/68Ga]Ga^3+” value [1] read?
**A.** 10^–5 M

**Q.** Which “reaction concentration up to which [^68Ga]Ga^3+ is quantitatively incorporated” value [1] does the source give for O=C(O)c1cccc(CN(CCN(Cc2ccc([N+](=O)[O-])cc2)Cc2cccc(C(=O)O)n2)Cc2ccc([N+](=O)[O-])cc2)n1 [H2dp-N-NO2] here?
**A.** 10^–6 M

Reference: article PMC10731644, “Toward ^68Ga and ^64Cu Positron Emission Tomography Probes: Is H2dedpa-N,N′-pram the Missing Link for dedpa Conjugation?” (Inorganic Chemistry, 2023)
